In the supplement of paper PMC10849652:
The other results are listed elsewhere or left out.

Protein sequences, listed by entry. Tags and fused reporters are not part of them. Lines headed by an entry give the natural chain unless they say otherwise; changes in a name come on top.
UniProt Q00653: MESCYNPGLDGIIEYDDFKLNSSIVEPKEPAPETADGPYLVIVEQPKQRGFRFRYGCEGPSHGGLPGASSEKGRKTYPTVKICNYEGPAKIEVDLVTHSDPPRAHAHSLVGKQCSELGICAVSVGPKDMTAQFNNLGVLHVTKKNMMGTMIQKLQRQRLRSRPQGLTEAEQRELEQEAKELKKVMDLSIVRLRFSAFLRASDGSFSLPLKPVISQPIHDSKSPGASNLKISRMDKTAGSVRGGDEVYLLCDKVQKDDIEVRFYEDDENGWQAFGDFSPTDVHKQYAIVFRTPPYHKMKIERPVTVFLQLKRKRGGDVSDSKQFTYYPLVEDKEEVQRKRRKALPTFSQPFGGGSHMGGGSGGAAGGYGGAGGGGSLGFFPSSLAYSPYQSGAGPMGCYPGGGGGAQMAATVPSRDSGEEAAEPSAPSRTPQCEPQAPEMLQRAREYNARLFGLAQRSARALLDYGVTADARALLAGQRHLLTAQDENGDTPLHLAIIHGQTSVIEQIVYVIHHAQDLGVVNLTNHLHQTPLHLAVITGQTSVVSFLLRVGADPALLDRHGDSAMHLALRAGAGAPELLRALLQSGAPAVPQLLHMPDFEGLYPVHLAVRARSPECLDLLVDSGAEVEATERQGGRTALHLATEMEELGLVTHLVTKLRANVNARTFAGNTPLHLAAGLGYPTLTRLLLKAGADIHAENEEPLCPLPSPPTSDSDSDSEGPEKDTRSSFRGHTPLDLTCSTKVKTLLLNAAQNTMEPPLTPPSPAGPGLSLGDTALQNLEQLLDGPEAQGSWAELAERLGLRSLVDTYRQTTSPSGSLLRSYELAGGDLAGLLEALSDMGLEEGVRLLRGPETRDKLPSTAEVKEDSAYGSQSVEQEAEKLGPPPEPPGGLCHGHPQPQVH
UniProt O95169, whole entry, looked up: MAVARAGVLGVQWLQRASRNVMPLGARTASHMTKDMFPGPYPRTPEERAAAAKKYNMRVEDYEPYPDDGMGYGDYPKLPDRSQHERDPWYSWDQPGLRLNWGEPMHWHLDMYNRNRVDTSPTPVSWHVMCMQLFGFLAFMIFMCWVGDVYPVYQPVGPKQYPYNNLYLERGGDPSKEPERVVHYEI
UniProt Q6KC79: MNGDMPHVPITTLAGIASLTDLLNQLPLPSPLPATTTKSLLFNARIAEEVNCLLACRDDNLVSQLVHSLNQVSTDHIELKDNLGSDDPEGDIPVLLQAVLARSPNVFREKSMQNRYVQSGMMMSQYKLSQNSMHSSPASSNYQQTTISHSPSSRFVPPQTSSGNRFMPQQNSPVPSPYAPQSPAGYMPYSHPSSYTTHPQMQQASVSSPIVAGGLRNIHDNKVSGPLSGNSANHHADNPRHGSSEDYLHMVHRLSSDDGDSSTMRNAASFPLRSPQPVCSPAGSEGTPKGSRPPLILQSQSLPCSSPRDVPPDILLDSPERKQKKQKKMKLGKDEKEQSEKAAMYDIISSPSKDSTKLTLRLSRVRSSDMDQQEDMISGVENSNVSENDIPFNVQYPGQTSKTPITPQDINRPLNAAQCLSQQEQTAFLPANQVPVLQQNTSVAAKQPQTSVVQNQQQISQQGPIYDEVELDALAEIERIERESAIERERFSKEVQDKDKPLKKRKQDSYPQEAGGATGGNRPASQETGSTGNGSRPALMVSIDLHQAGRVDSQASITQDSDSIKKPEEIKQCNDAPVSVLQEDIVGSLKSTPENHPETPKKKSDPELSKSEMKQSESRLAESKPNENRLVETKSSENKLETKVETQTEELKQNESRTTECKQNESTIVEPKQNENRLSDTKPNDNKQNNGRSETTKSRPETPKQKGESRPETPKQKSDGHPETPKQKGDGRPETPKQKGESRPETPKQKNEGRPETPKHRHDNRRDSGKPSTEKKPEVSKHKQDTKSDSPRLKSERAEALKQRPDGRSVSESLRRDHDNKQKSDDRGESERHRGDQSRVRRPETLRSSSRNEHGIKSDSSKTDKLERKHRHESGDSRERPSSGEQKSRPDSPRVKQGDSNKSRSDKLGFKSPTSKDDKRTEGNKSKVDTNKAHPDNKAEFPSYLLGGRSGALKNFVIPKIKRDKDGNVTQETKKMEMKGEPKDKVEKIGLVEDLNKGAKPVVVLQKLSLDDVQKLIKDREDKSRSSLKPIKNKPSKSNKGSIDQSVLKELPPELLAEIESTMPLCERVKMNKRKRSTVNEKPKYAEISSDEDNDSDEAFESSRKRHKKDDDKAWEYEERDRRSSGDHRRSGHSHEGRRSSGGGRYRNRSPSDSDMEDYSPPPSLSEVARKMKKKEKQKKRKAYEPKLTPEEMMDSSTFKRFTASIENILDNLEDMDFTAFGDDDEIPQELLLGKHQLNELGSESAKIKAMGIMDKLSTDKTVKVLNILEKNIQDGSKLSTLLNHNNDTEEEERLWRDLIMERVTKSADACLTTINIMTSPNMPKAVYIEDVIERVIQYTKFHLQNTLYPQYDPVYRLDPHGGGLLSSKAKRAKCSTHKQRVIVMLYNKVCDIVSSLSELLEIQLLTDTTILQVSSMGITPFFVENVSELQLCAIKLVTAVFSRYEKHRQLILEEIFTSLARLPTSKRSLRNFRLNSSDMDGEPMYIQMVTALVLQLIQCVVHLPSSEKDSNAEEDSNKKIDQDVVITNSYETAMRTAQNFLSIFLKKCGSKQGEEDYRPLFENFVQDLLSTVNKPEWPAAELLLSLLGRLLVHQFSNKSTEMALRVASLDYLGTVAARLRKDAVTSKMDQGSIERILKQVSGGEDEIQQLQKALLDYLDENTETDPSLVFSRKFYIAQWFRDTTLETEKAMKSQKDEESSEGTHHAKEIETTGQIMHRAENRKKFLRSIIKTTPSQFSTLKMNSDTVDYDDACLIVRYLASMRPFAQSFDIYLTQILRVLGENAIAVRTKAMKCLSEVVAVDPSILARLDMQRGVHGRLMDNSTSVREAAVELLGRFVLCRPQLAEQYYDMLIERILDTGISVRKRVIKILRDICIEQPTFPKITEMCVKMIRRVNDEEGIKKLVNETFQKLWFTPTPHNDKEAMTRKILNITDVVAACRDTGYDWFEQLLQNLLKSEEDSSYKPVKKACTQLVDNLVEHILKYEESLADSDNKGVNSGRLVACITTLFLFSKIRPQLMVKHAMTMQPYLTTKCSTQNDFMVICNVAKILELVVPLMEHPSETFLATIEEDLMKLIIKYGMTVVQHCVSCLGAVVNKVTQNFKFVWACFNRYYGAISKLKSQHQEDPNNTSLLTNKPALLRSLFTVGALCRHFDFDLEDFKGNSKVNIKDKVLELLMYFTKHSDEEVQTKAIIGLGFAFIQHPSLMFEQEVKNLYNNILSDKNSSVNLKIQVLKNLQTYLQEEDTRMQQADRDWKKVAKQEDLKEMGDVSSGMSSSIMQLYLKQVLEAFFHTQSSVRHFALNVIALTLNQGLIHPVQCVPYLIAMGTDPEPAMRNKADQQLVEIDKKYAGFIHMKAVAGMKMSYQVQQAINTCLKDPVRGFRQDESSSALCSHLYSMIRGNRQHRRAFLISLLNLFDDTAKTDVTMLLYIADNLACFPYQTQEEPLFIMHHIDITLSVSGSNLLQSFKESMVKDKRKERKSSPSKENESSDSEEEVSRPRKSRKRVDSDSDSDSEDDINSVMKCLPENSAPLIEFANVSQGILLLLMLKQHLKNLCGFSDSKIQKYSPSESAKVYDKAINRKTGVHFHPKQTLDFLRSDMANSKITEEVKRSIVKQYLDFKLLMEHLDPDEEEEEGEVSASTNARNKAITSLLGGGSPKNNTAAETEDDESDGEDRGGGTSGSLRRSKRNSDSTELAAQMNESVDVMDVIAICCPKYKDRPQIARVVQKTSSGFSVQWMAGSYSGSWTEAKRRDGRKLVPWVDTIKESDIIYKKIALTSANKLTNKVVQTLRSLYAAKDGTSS
UniProt O75306, whole entry, looked up: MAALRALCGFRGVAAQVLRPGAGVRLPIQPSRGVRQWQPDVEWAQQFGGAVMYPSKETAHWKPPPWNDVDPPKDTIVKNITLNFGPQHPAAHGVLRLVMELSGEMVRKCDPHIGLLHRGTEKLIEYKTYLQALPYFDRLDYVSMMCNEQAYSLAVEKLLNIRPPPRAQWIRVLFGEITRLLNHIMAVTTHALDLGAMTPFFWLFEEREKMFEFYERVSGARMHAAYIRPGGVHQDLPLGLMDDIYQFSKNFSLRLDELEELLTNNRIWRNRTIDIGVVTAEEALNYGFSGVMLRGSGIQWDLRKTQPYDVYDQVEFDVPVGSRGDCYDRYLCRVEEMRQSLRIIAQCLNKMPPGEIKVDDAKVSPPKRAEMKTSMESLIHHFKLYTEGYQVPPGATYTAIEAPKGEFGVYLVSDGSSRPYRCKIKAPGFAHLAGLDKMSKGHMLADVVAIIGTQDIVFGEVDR
UniProt Q9UHB4: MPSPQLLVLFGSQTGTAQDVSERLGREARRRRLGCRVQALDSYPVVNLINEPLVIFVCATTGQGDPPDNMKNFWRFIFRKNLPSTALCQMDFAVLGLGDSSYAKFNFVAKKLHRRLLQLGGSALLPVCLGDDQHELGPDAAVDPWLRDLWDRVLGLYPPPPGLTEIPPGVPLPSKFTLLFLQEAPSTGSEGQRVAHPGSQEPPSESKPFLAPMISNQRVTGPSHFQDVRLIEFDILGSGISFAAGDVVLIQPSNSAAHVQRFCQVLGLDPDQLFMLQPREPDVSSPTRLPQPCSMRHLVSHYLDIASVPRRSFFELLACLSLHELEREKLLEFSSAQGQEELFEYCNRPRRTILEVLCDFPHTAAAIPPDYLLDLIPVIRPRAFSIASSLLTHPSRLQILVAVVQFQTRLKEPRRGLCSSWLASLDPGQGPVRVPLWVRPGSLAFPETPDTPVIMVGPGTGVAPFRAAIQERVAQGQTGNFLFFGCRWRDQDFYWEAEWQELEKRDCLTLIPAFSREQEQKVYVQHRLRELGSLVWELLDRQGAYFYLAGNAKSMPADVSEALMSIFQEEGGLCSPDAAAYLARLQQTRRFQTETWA
UniProt P19404, whole entry, looked up: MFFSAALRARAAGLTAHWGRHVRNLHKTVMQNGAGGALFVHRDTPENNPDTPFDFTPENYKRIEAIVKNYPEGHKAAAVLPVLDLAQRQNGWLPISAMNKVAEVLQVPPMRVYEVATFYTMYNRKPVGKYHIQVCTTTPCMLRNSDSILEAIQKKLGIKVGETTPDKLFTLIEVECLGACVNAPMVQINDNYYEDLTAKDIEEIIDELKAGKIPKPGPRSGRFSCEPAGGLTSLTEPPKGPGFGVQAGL
UniProt P17568, whole entry, looked up: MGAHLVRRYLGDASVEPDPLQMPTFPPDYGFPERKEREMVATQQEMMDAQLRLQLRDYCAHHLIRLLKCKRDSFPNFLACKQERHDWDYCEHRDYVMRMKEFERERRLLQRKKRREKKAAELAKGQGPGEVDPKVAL
UniProt Q9P032: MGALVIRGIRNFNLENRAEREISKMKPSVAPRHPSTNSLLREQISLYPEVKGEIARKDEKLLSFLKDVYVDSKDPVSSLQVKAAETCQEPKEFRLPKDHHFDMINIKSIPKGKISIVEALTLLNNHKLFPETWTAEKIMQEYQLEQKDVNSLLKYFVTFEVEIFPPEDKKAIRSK
UniProt Q16718, whole entry, looked up: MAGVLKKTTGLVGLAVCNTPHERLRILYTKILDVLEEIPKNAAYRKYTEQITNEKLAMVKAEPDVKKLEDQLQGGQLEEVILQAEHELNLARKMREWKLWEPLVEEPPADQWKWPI
UniProt Q9H9Q4: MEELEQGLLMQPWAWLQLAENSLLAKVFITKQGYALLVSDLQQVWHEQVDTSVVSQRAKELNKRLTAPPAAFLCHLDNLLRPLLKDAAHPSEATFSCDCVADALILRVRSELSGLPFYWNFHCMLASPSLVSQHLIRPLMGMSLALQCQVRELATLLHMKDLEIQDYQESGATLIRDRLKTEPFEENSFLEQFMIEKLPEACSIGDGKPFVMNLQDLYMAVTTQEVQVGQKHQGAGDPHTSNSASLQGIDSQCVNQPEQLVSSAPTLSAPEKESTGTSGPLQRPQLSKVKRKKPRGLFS
UniProt O14777: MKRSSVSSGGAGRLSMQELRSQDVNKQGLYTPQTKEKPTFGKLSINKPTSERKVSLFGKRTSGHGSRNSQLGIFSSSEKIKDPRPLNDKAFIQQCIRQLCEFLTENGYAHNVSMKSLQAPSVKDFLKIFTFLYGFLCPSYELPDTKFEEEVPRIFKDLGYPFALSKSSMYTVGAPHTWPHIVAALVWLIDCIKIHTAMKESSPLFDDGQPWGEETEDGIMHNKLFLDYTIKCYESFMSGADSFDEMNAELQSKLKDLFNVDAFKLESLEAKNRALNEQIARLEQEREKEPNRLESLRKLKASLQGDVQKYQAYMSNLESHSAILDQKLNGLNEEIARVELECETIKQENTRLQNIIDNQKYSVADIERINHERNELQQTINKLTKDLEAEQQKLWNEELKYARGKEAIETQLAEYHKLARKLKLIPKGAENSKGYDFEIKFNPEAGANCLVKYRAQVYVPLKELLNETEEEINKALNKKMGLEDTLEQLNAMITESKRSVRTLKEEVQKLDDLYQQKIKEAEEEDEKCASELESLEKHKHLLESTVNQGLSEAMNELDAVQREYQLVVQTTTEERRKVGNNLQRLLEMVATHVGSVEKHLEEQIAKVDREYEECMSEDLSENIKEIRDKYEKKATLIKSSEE

Assays:
Test in all cases: log2 fold change, soluble protein after heating vs DMSO (PISA); higher = thermal stabilisation; K562 lysate, 10 uM; active = over 0.2 and 3.5 SD of the protein, either way, in both replicates (recomputed)
[1] = compound: C1=CC=C(C=C1)[C@H](COC2=CC3=C(C=C2)NC(=O)N3)NC(=O)C4=CC=CN(C4=O)CC5=CC(=C(C=C5)F)F
Summary of the method: (§1)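 Quantification was by TMTpro 16plex LC-MS/MS with equalised channel sums, applied to the supernatant after 21,000xg for 90 min. Samples were crude K562 extract at 1 mg/mL protein in PBS pH 7.4 with 1 mM MgCl2, treated with 10 μM compound for 30 min, heated for 3 min across 48°C-58°C, pooled and brought to 0.5% NP-40 at 4°C. Values are log-two fold changes in thermal stability relative to solvent controls, from duplicates.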

[2] = compound: CC1=C(SC2=C1C(=N[C@H](C3=NN=C(N32)C)CC(=O)N)C4=CC=C(C=C4)Cl)C
Summary of the method: as §1

[3] = compound: CC1=C2C(=CC=C1)N=C(N(C2=O)C3=CC=CC=C3C)CN4C=NC5=C(N=CN=C54)N
Summary of the method: as §1

[4] = compound: Cc1sc2c(c1C)C(c1ccc(Cl)cc1)=N[C@@H](CC(=O)OC(C)(C)C)c1nnc(C)n1-2
Summary of the method: as §1

[5] = compound: c1ccc([C@@H]2C[C@H]2NC2CCNCC2)cc1
Summary of the method: as §1

Measured: log2 fold change

NFKB2 (UniProt Q00653)
inactive: [1] -0.001 | [2] 0.009 | [3] 0.016 | [4] -0.021 | [5] 0.002

NDUFB8 (UniProt O95169)
inactive: [1] -0.011 | [2] -0.046 | [3] 0.022 | [4] -0.015 | [5] 0.04

NIPBL (UniProt Q6KC79)
inactive: [1] 0.003 | [2] -0.055 | [3] -0.001 | [4] -0.014 | [5] -0.01

NFATC2IP (UniProt Q8NCF5)
inactive: [1] 0.012 | [2] -0.01 | [3] 0.009 | [4] 0.138 | [5] 0.049

NEBL isoform 2 (UniProt O76041)
inactive: [1] -0.025 | [2] -0.102 | [3] 0.018 | [4] -0.07 | [5] -0.094

NF2 (UniProt P35240)
inactive: [1] 0.069 | [2] 0.011 | [3] -0.04 | [4] 0.015 | [5] -0.016

Reprinted at random: 2 records from the list.
NFATC2IP (UniProt Q8NCF5)
inactive: [1] 0.012 | [2] -0.01 | [3] 0.009 | [4] 0.138 | [5] 0.049

NDUFB8 (UniProt O95169)
inactive: [1] -0.011 | [2] -0.046 | [3] 0.022 | [4] -0.015 | [5] 0.04

Continuation:

NDUFS2 (UniProt O75306)
inactive: [1] 0 | [2] 0.025 | [3] -0.012 | [4] 0.017 | [5] 0.012

NEFH (UniProt P12036)
inactive: [1] -0.042 | [2] -0.031 | [3] -0.113 | [4] 0.038 | [5] 0.077

NDOR1 isoform 2 (UniProt Q9UHB4)
inactive: [1] -0.109 | [2] 0.082 | [3] 0.061 | [4] -0.021 | [5] -0.062

NDUFV2 (UniProt P19404)
inactive: [1] -0.03 | [2] -0.053 | [3] -0.014 | [4] -0.009 | [5] -0.019

NDUFB7 (UniProt P17568)
inactive: [1] 0.014 | [2] 0.037 | [3] 0.007 | [4] -0.043 | [5] 0.025

NDUFAF4 (UniProt Q9P032)
inactive: [1] -0.094 | [2] -0.001 | [3] 0.002 | [4] -0.008 | [5] 0.042

NDUFA5 (UniProt Q16718)
inactive: [1] -0.044 | [2] -0.07 | [3] 0.02 | [4] 0.065 | [5] 0.032

NHEJ1 (UniProt Q9H9Q4)
inactive: [1] 0.028 | [2] -0.016 | [3] -0.075 | [4] -0.062 | [5] 0.092

NDC80 (UniProt O14777)
inactive: [1] -0.042 | [2] -0.027 | [3] -0.004 | [4] -0.007 | [5] 0.015

NGRN (UniProt Q9NPE2)
inactive: [1] -0.036 | [2] 0.049 | [3] 0.039 | [4] -0.069 | [5] 0.09

NEU1 (UniProt Q99519)
inactive: [1] 0.022 | [2] -0.016 | [3] 0.129 | [4] 0.059 | [5] 0.073

NES (UniProt P48681)
inactive: [1] 0.05 | [2] 0.04 | [3] -0.002 | [4] -0.021 | [5] 0.03

NDUFS5 (UniProt O43920)
inactive: [1] -0.04 | [2] 0.045 | [3] 0.017 | [4] -0.007 | [5] -0.004

NFS1 (UniProt Q9Y697)
inactive: [1] 0.03 | [2] 0.001 | [3] 0.013 | [4] -0.029 | [5] -0.025

NDUFS3 (UniProt O75489)
inactive: [1] 0.015 | [2] 0.048 | [3] 0.006 | [4] 0.04 | [5] -0.001

NFATC1 (UniProt O95644)
inactive: [1] -0.006 | [2] 0.047 | [3] -0.017 | [4] 0.003 | [5] -0.127

NFKBIB (UniProt Q15653)
inactive: [1] 0.068 | [2] 0 | [3] 0.014 | [4] 0.055 | [5] -0.185

NEMF (UniProt O60524)
inactive: [1] 0.036 | [2] 0.013 | [3] -0.024 | [4] -0.014 | [5] 0.04
